Test results from PMC7312527 (International Journal of Molecular Sciences, 2020).
Results are given in words; binding and its absence hold for the method and conditions named.

Sequences of proteins named here, by UniProt entry; tags and fusion partners are left off. Residues count along the entry.
UniProt P22303, residues 52-577: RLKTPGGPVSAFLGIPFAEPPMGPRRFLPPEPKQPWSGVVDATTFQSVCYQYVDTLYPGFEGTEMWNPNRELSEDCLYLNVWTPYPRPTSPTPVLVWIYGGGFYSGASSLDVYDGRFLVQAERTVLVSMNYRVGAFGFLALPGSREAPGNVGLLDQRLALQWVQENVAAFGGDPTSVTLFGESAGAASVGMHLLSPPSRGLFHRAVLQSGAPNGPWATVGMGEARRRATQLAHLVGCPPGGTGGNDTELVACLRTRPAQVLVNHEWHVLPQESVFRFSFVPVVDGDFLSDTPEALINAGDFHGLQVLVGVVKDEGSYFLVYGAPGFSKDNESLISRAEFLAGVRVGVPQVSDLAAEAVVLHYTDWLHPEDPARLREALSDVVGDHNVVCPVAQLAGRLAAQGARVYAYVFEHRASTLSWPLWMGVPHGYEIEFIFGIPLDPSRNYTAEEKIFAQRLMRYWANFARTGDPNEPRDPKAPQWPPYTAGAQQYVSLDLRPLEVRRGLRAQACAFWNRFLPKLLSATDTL
UniProt P27338, residues 1-489: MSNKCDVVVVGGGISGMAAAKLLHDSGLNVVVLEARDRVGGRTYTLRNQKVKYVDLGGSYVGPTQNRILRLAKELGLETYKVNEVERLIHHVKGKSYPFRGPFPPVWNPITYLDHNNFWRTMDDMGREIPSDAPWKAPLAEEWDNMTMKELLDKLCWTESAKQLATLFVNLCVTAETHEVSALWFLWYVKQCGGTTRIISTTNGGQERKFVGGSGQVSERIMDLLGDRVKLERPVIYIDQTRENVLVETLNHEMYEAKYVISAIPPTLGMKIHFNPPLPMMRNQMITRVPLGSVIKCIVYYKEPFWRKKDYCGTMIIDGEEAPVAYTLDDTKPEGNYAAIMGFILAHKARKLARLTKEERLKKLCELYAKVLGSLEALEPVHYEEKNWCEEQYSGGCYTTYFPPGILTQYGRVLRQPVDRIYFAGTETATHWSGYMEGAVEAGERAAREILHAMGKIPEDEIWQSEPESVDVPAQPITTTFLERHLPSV

Columns and labels:
[1] = target: human acetylcholinesterase (AChE), aa 52-577, bait from pGBKT7-hAChE (human) (UniProt P22303); assay: two-hybrid; Matchmaker Gold Y2H, small-scale mating (5 mL) of Y2HGold (bait AChE) with Y187 (preys), plated on DDO/X/A agar (Aureobasidin A 200 ng/mL, X-alpha-Gal 40 µg/mL), no hybrid ligand
[2] = target: human acetylcholinesterase (AChE), aa 52-577, bait from pGBKT7-hAChE (human) (UniProt P22303); assay: yeast three-hybrid; small-scale mating (10 mL) with 10 µM hybrid ligand, plated on DDO/X/A agar with 10 µM hybrid ligand; blue colony moved to QDO/X/A with 10 µM hybrid ligand, then to QDO/X/A without it

Substance	binding [1]	binding [2]
human microtubule associated protein tau (MAPT), entire protein (aa 1-758), prey from pGADT7-hMAPT (from UniProt P10636-1 1-758)	no binding	no binding (tested: 10 µM hybrid ligand)
human monoamine oxidase B (MAO B), cytoplasmic domain (aa 1-489), prey from pGADT7-hMAO B (from UniProt P27338 1-489) (domain or fragment)	no binding	no binding (tested: 10 µM hybrid ligand)
